{"source": "PubChem BioAssay AID248", "about": "(DTP/NCI, 2004)", "test_system": "L1210 leukemia ip in BDF1 mice, survival T/C", "assay": "NCI In Vivo Anticancer Drug Screen. Data for tumor model L1210 Leukemia (intraperitoneal) in B6D2F1 (BDF1) mice", "conditions": "T/C endpoint: mean survival time, higher T/C = longer survival", "key": {"[1]": {"conditions": "dose: 400.0 mg/kg/injection, schedule: Q04DX003 (ip), vehicle: saline with Tween-80"}, "[2]": {"conditions": "dose: 400.0 mg/kg/injection, schedule: Q04DX003 (ip), vehicle: saline"}, "[3]": {"conditions": "dose: 200.0 mg/kg/injection, schedule: Q04DX003 (ip), vehicle: saline with Tween-80"}, "[4]": {"conditions": "dose: 100.0 mg/kg/injection, schedule: Q01DX009 (ip), vehicle: saline with Tween-80"}, "[5]": {"conditions": "dose: 100.0 mg/kg/injection, schedule: Q04DX002 (ip), vehicle: saline with Tween-80"}, "[6]": {"conditions": "dose: 200.0 mg/kg/injection, schedule: Q04DX002 (ip), vehicle: saline with Tween-80"}, "[7]": {"conditions": "dose: 400.0 mg/kg/injection, schedule: Q04DX002 (ip), vehicle: saline with Tween-80"}}, "note": "The list is a part of this screen's results and no random one: it is rich in T/C values a quarter to a half above the control, in often repeated tests (any T/C) and in doses without a T/C. Other doses and runs of a compound stand elsewhere. T/C: endpoint of the treated group in % of that of the vehicle group. Some entries give survivors of the animals treated and no T/C: the source holds a T/C of zero for them, seemingly a mark for toxic or unscored doses. Some survivor counts are full or nearly so, which does not show that the dose was tolerated: the source hardly ever lists a survival T/C far under the control, and the zero likely stands for such cases as well. Survivors were counted at the toxicity check, usually on the fifth day, unless a day is given; later deaths do not show. Schedule codes are those of the source, read here as Q, the interval in days (D) or hours (H), X, the number of doses. Some entries hold several experiments; the results are listed from low to high."}
{"smiles": "CCCCN=Cc1ccccc1O.CCCCN=Cc1ccccc1O.[Cu]", "values": [{"measurement": "survivor count", "setting": "dose: 12.5 mg/kg/injection, schedule: Q01DX009 (ip), vehicle: Klucel (hydroxypropylcellulose) (HPC)", "result": "3 of 3"}, {"measurement": "survivor count", "setting": "dose: 50.0 mg/kg/injection, schedule: Q04DX002 (ip), vehicle: Klucel (hydroxypropylcellulose) (HPC)", "result": "1 of 3"}, {"measurement": "survivor count", "setting": "dose: 200.0 mg/kg/injection, schedule: Q04DX002 (ip), vehicle: Klucel (hydroxypropylcellulose) (HPC)", "result": "0 of 3"}, {"measurement": "survivor count", "setting": "dose: 400.0 mg/kg/injection, schedule: Q04DX002 (ip), vehicle: Klucel (hydroxypropylcellulose) (HPC)", "result": "0 of 3"}]}
{"smiles": "O=C(c1ccc(-c2ccccc2)cc1)C(Br)CCBr", "note": "(centres undefined)", "values": [{"measurement": "survivor count", "setting": "[1]", "result": "2 of 6"}]}
{"smiles": "CCCCCC[P+](=O)CCCCCC", "values": [{"measurement": "survivor count", "setting": "dose: 400.0 mg/kg/injection, schedule: Q04DX002 (ip), vehicle: gum acacia", "result": "0 of 3"}]}
{"smiles": "COc1ccc2c(c1OC)C1(CCN(C)C)CC(O)CCC1C=C2", "note": "(centres undefined)", "values": [{"measurement": "survivor count", "setting": "[2]", "result": "3 of 6"}]}
{"smiles": "N#CC(Nc1ccccc1)c1ccccc1", "note": "(centres undefined)", "values": [{"measurement": "survivor count", "setting": "dose: 400.0 mg/kg/injection, schedule: Q01DX009 (ip), vehicle: Klucel (hydroxypropylcellulose) (HPC)", "result": "0 of 6"}]}
{"smiles": "CN1CCC(c2ccccc2)(c2ccccc2)OC1", "values": [{"measurement": "survivor count", "setting": "[3]", "result": "3 of 6"}, {"measurement": "survivor count", "setting": "[1]", "result": "0 of 6"}]}
{"smiles": "CCN(CC)CCOC(=O)Nc1ccc(Cl)cc1", "values": [{"measurement": "survivor count", "setting": "[2]", "result": "4 of 6"}]}
{"smiles": "CCCCN(C)N=Nc1n[nH]nc1C(N)=O", "values": [{"measurement": "survivor count", "setting": "dose: 500.0 mg/kg/injection, schedule: Q01DX001 (ip), vehicle: carboxymethylcellulose (CMC)", "result": "1 of 6"}]}
{"smiles": "CC(=O)CC(=O)Nc1cccc(Cl)c1", "values": [{"measurement": "survivor count", "setting": "dose: 60.0 mg/kg/injection, schedule: Q01DX001 (ip), vehicle: carboxymethylcellulose (CMC)", "result": "0 of 6"}, {"measurement": "survivor count", "setting": "dose: 75.0 mg/kg/injection, schedule: Q01DX001 (ip), vehicle: carboxymethylcellulose (CMC)", "result": "0 of 6"}, {"measurement": "survivor count", "setting": "dose: 150.0 mg/kg/injection, schedule: Q01DX001 (ip), vehicle: carboxymethylcellulose (CMC)", "result": "0 of 6"}, {"measurement": "survivor count", "setting": "dose: 300.0 mg/kg/injection, schedule: Q01DX001 (ip), vehicle: carboxymethylcellulose (CMC)", "result": "0 of 6"}]}
{"smiles": "Nc1ccc(OCCNS(=O)(=O)c2ccc(S(=O)(=O)F)cc2)c(Cl)c1", "values": [{"measurement": "survivor count", "setting": "dose: 200.0 mg/kg/injection, schedule: Q04DX003 (ip), vehicle: Klucel (hydroxypropylcellulose) (HPC)", "result": "1 of 6"}, {"measurement": "survivor count", "setting": "dose: 400.0 mg/kg/injection, schedule: Q04DX003 (ip), vehicle: Klucel (hydroxypropylcellulose) (HPC)", "result": "3 of 6"}]}
{"smiles": "COc1ccc(OC)c(NC(=O)Nc2ccc(Nc3ccccc3)cc2)c1", "values": [{"measurement": "survivor count", "setting": "dose: 100.0 mg/kg/injection, schedule: Q04DX003 (ip), vehicle: Klucel (hydroxypropylcellulose) (HPC)", "result": "6 of 6"}]}
{"smiles": "[Cl][Dy]([Cl])[Cl]", "values": [{"measurement": "survivor count", "setting": "[2]", "result": "1 of 6"}]}
{"smiles": "OCCCCN1CCCCC1", "values": [{"measurement": "survivor count", "setting": "dose: 400.0 mg/kg/injection, schedule: Q01DX001 (ip), vehicle: saline", "result": "1 of 4"}]}
{"smiles": "Cc1cccc([N+](=O)[O-])n1", "values": [{"measurement": "survivor count", "setting": "[4]", "result": "5 of 6"}, {"measurement": "survivor count", "setting": "[3]", "result": "4 of 6"}, {"measurement": "survivor count", "setting": "[1]", "result": "4 of 6"}]}
{"smiles": "C[N+](C)(Cc1ccc(F)cc1)C1c2ccccc2-c2ccccc21", "values": [{"measurement": "survivor count", "setting": "dose: 12.5 mg/kg/injection, schedule: Q04DX003 (ip), vehicle: saline with Tween-80", "result": "6 of 6"}]}
{"smiles": "CCCCCCCCCCN=C(N)CSSCC(N)=NCCCCCCCCCC", "values": [{"measurement": "survivor count", "setting": "dose: 6.25 mg/kg/injection, schedule: Q04DX002 (ip), vehicle: saline with Tween-80", "result": "0 of 3"}, {"measurement": "survivor count", "setting": "dose: 12.5 mg/kg/injection, schedule: Q04DX002 (ip), vehicle: saline with Tween-80", "result": "0 of 3"}, {"measurement": "survivor count", "setting": "dose: 25.0 mg/kg/injection, schedule: Q04DX002 (ip), vehicle: saline with Tween-80", "result": "0 of 3"}, {"measurement": "survivor count", "setting": "[5]", "result": "0 of 3"}, {"measurement": "survivor count", "setting": "[6]", "result": "0 of 3"}, {"measurement": "survivor count", "setting": "[7]", "result": "0 of 3"}]}
{"smiles": "CCN(C(=O)c1ccc([N+](=O)[O-])cc1)C(c1ccccc1)P(=O)(c1ccccc1)c1ccccc1", "note": "(centres undefined)", "values": [{"measurement": "survivor count", "setting": "dose: 50.0 mg/kg/injection, schedule: Q01DX009 (ip), vehicle: saline with Tween-80", "result": "3 of 3 and 6 of 6"}, {"measurement": "survivor count", "setting": "[4]", "result": "3 of 3 and 6 of 6"}, {"measurement": "survivor count", "setting": "[5]", "result": "6 of 6"}, {"measurement": "survivor count", "setting": "dose: 200.0 mg/kg/injection, schedule: Q01DX009 (ip), vehicle: saline with Tween-80", "result": "3 of 3"}, {"measurement": "survivor count", "setting": "[6]", "result": "3 of 3 and 6 of 6"}, {"measurement": "survivor count", "setting": "[7]", "result": "3 of 3"}]}
{"smiles": "CCCCC(CCCC)NCCOC(=O)c1ccc(N)cc1", "values": [{"measurement": "survivor count", "setting": "dose: 150.0 mg/kg/injection, schedule: Q01DX001 (ip), vehicle: other", "result": "0 of 6"}, {"measurement": "survivor count", "setting": "dose: 300.0 mg/kg/injection, schedule: Q01DX001 (ip), vehicle: other", "result": "0 of 6"}]}
